# Data as given in the supplement of paper PMC8728848.
# The other results are listed elsewhere or left out.
# B1: PX9961K-bvu-480-28-480 (Bacteroides vulgatus) (protein)
# chain: NKIPTTMAFRTVTDVDNAVNGLYDLMSGSGYYGAAMFAYGDMKGDDMQSSEESGVCNTCYMFNHRPNSLNAGSLWGRPFYILREAWNILNAIAEGKIESGDEKKLNALKGETMAVIALCQFDLTRCFGYPYTKDKGASLGAPLIDHLVGTYENPPRSTVAQAYDFIIETLEEAVTLMSEEKNNGRMNKYAARALLARIYLYHDDNRKAFDLADQLIKDADTSGSYALYPHEKYVAAWSVEAKFGSESFFEIANSVDDTPGRDSWGYLLNWYGYQKGFVTQKYAEQMLADPGDVRGHLLEENKYAGKTVWWLYKLRGTDLKTAPLECNNVVLRLSEVYLIAAEAGCKLGGDAAVQGLGYLNEIVKRGNPDNEVTMADYTLDRVLDERSKELVGEGHRFFDLLRNGKTIVRKGGYHLPSVDEEVDWDFYKCVLPIPEDQFIFSPEMEQNPGYPKN
# What was measured:
# Assay in all cases: glycan array binding signal (z-score within array); higher = stronger binding
# Conditions in all cases: glycan notation: IUPAC condensed, linker removed
# [1] = molecular target: Neu5Ac(a2-3)Gal(b1-4)GlcNAc(b1-6)GalNAc
# In short: (§1)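 Negative Z-scores can be read as non-binding. The Z-score is calculated within each array and then averaged across arrays of one protein sequence at different concentrations or buffers and across linkers. Arrays, 3228 in all, were curated from the Consortium for Functional Glycomics database and kept only where the protein sequence was available.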
# [2] = molecular target: Neu5Ac(a2-3)Gal(b1-4)GlcNAc(b1-6)[Gal(b1-3)]GalNAc
# In short: as §1
# [3] = molecular target: Neu5Ac(a2-3)Gal(b1-4)GlcNAc(b1-6)[Neu5Ac(a2-3)Gal(b1-3)]GalNAc
# In short: as §1
# [4] = molecular target: Neu5Ac(a2-3)Gal(b1-4)GlcNAc6S
# In short: as §1
# [5] = molecular target: Neu5Ac(a2-3)Gal(b1-4)[Fuc(a1-3)]GlcNAc
# In short: as §1
# [6] = molecular target: Neu5Ac(a2-3)Gal(b1-4)[Fuc(a1-3)]GlcNAc(b1-2)Man
# In short: as §1
# [7] = molecular target: Neu5Ac(a2-3)Gal(b1-4)[Fuc(a1-3)]GlcNAc(b1-3)Gal
# In short: as §1
# [8] = molecular target: Neu5Ac(a2-3)Gal(b1-4)[Fuc(a1-3)]GlcNAc(b1-3)Gal(b1-4)GlcNAc
# In short: as §1
# [9] = molecular target: Neu5Ac(a2-3)Gal(b1-4)[Fuc(a1-3)]GlcNAc(b1-3)Gal(b1-4)[Fuc(a1-3)]GlcNAc(b1-3)Gal(b1-4)[Fuc(a1-3)]GlcNAc
# In short: as §1
# [10] = molecular target: Neu5Ac(a2-3)Gal(b1-4)[Fuc(a1-3)]GlcNAc(b1-3)GalNAc
# In short: as §1
# [11] = molecular target: Neu5Ac(a2-3)Gal(b1-4)[Fuc(a1-3)]GlcNAc(b1-6)[Gal(b1-3)]GalNAc
# In short: as §1
# [12] = molecular target: Neu5Ac(a2-3)Gal(b1-4)[Fuc(a1-3)]GlcNAc(b1-6)[Neu5Ac(a2-3)Gal(b1-3)]GalNAc
# In short: as §1
# [13] = molecular target: Neu5Ac(a2-3)Gal(b1-4)[Fuc(a1-3)]GlcNAc6S
# In short: as §1
# [14] = molecular target: Neu5Ac(a2-3)Gal6S(b1-4)GlcNAc
# In short: as §1
# [15] = molecular target: Neu5Ac(a2-3)Gal6S(b1-4)[Fuc(a1-3)]GlcNAc
# In short: as §1
# [16] = molecular target: Neu5Ac(a2-3)GalNAc
# In short: as §1
# [17] = molecular target: Neu5Ac(a2-3)GalNAc(b1-4)GlcNAc
# In short: as §1
# [18] = molecular target: Neu5Ac(a2-3)[GalNAc(b1-4)]Gal(b1-4)Glc
# In short: as §1
# [19] = molecular target: Neu5Ac(a2-3)[GalNAc(b1-4)]Gal(b1-4)GlcNAc
# In short: as §1
# [20] = molecular target: Neu5Ac(a2-3)[GalNAc(b1-4)]Gal(b1-4)GlcNAc(b1-3)GalNAc
# In short: as §1
# [21] = molecular target: Neu5Ac(a2-3)[Neu5Ac(a2-6)]GalNAc
# In short: as §1
# [22] = molecular target: Neu5Ac(a2-6)Gal
# In short: as §1
# [23] = molecular target: Neu5Ac(a2-6)Gal(b1-3)GlcNAc(b1-3)[Gal(b1-4)GlcNAc(b1-6)]Gal(b1-4)Glc
# In short: as §1
# [24] = molecular target: Neu5Ac(a2-6)Gal(b1-4)Glc
# In short: as §1
# [25] = molecular target: Neu5Ac(a2-6)Gal(b1-4)GlcNAc
# In short: as §1
# [26] = molecular target: Neu5Ac(a2-6)Gal(b1-4)GlcNAc(b1-2)Man
# In short: as §1
# [27] = molecular target: Neu5Ac(a2-6)Gal(b1-4)GlcNAc(b1-2)Man(a1-3)Man(b1-4)GlcNAc(b1-4)GlcNAc
# In short: as §1
# [28] = molecular target: Neu5Ac(a2-6)Gal(b1-4)GlcNAc(b1-2)Man(a1-3)[Gal(b1-4)GlcNAc(b1-2)Man(a1-6)]Man(b1-4)GlcNAc(b1-4)GlcNAc
# In short: as §1
# [29] = molecular target: Neu5Ac(a2-6)Gal(b1-4)GlcNAc(b1-2)Man(a1-3)[GlcNAc(b1-2)Man(a1-6)]Man(b1-4)GlcNAc(b1-4)GlcNAc
# In short: as §1
# [30] = molecular target: Neu5Ac(a2-6)Gal(b1-4)GlcNAc(b1-2)Man(a1-3)[GlcNAc(b1-4)][Neu5Ac(a2-6)Gal(b1-4)GlcNAc(b1-2)Man(a1-6)]Man(b1-4)GlcNAc(b1-4)GlcNAc
# In short: as §1
# [31] = molecular target: Neu5Ac(a2-6)Gal(b1-4)GlcNAc(b1-2)Man(a1-3)[Man(a1-6)]Man(b1-4)GlcNAc(b1-4)GlcNAc
# In short: as §1
# [32] = molecular target: Neu5Ac(a2-6)Gal(b1-4)GlcNAc(b1-2)Man(a1-3)[Neu5Ac(a2-3)Gal(b1-4)GlcNAc(b1-2)Man(a1-6)]Man(b1-4)GlcNAc(b1-4)GlcNAc
# In short: as §1
# [33] = molecular target: Neu5Ac(a2-6)Gal(b1-4)GlcNAc(b1-2)Man(a1-3)[Neu5Ac(a2-6)Gal(b1-4)GlcNAc(b1-2)Man(a1-6)]Man(b1-4)GlcNAc(b1-4)GlcNAc
# In short: as §1
# [34] = molecular target: Neu5Ac(a2-6)Gal(b1-4)GlcNAc(b1-2)Man(a1-3)[Neu5Ac(a2-6)Gal(b1-4)GlcNAc(b1-2)Man(a1-6)]Man(b1-4)GlcNAc(b1-4)[Fuc(a1-6)]GlcNAc
# In short: as §1
# [35] = molecular target: Neu5Ac(a2-6)Gal(b1-4)GlcNAc(b1-2)Man(a1-6)Man(b1-4)GlcNAc(b1-4)GlcNAc
# In short: as §1
# [36] = molecular target: Neu5Ac(a2-6)Gal(b1-4)GlcNAc(b1-2)Man(a1-6)[Gal(b1-4)GlcNAc(b1-2)Man(a1-3)]Man(b1-4)GlcNAc(b1-4)GlcNAc
# In short: as §1
# [37] = molecular target: Neu5Ac(a2-6)Gal(b1-4)GlcNAc(b1-2)Man(a1-6)[GlcNAc(b1-2)Man(a1-3)]Man(b1-4)GlcNAc(b1-4)GlcNAc
# In short: as §1
# [38] = molecular target: Neu5Ac(a2-6)Gal(b1-4)GlcNAc(b1-2)Man(a1-6)[Man(a1-3)]Man(b1-4)GlcNAc(b1-4)GlcNAc
# In short: as §1
# [39] = molecular target: Neu5Ac(a2-6)Gal(b1-4)GlcNAc(b1-2)[Neu5Ac(a2-6)Gal(b1-4)GlcNAc(b1-4)]Man(a1-3)[GlcNAc(b1-4)][Neu5Ac(a2-6)Gal(b1-4)GlcNAc(b1-2)[Neu5Ac(a2-6)Gal(b1-4)GlcNAc(b1-6)]Man(a1-6)]Man(b1-4)GlcNAc(b1-4)GlcNAc
# In short: as §1
# [40] = molecular target: Neu5Ac(a2-6)Gal(b1-4)GlcNAc(b1-2)[Neu5Ac(a2-6)Gal(b1-4)GlcNAc(b1-4)]Man(a1-3)[GlcNAc(b1-4)][Neu5Ac(a2-6)Gal(b1-4)GlcNAc(b1-4)Man(a1-6)]Man(b1-4)GlcNAc(b1-4)GlcNAc
# In short: as §1
# [41] = molecular target: Neu5Ac(a2-6)Gal(b1-4)GlcNAc(b1-2)[Neu5Ac(a2-6)Gal(b1-4)GlcNAc(b1-6)]Man(a1-6)[Neu5Ac(a2-6)Gal(b1-4)GlcNAc(b1-2)Man(a1-3)][GlcNAc(b1-4)]Man(b1-4)GlcNAc(b1-4)GlcNAc
# In short: as §1
# [42] = molecular target: Neu5Ac(a2-6)Gal(b1-4)GlcNAc(b1-3)Gal(b1-3)GlcNAc
# In short: as §1
# [43] = molecular target: Neu5Ac(a2-6)Gal(b1-4)GlcNAc(b1-3)Gal(b1-4)GlcNAc
# In short: as §1
# [44] = molecular target: Neu5Ac(a2-6)Gal(b1-4)GlcNAc(b1-3)Gal(b1-4)GlcNAc(b1-2)Man(a1-3)[Neu5Ac(a2-6)Gal(b1-4)GlcNAc(b1-3)Gal(b1-4)GlcNAc(b1-2)Man(a1-6)]GalNAc
# In short: as §1
# [45] = molecular target: Neu5Ac(a2-6)Gal(b1-4)GlcNAc(b1-3)Gal(b1-4)GlcNAc(b1-3)Gal(b1-4)GlcNAc
# In short: as §1
binder,measurement,setting,value
B1,glycan array binding signal (z-score),[1],-0.742
same,glycan array binding signal (z-score),[2],-0.454
same,glycan array binding signal (z-score),[3],-0.435
same,glycan array binding signal (z-score),[4],-0.889
same,glycan array binding signal (z-score),[5],-0.188
same,glycan array binding signal (z-score),[6],-0.256
same,glycan array binding signal (z-score),[7],-1.04
same,glycan array binding signal (z-score),[8],-0.296
same,glycan array binding signal (z-score),[9],0.017
same,glycan array binding signal (z-score),[10],1.29
same,glycan array binding signal (z-score),[11],-0.803
same,glycan array binding signal (z-score),[12],-0.445
same,glycan array binding signal (z-score),[13],-0.021
same,glycan array binding signal (z-score),[14],-0.009
same,glycan array binding signal (z-score),[15],-0.737
same,glycan array binding signal (z-score),[16],-0.132
same,glycan array binding signal (z-score),[17],0.076
same,glycan array binding signal (z-score),[18],-0.122
same,glycan array binding signal (z-score),[19],-0.908
same,glycan array binding signal (z-score),[20],-0.375
same,glycan array binding signal (z-score),[21],-0.193
same,glycan array binding signal (z-score),[22],-0.091
same,glycan array binding signal (z-score),[23],-0.037
same,glycan array binding signal (z-score),[24],-1.13
same,glycan array binding signal (z-score),[25],-0.65
same,glycan array binding signal (z-score),[26],-0.932
same,glycan array binding signal (z-score),[27],1.33
same,glycan array binding signal (z-score),[28],0.321
same,glycan array binding signal (z-score),[29],0.208
same,glycan array binding signal (z-score),[30],-0.331
same,glycan array binding signal (z-score),[31],-0.647
same,glycan array binding signal (z-score),[32],0.838
same,glycan array binding signal (z-score),[33],0.062
same,glycan array binding signal (z-score),[34],1.16
same,glycan array binding signal (z-score),[35],-0.354
same,glycan array binding signal (z-score),[36],-0.856
same,glycan array binding signal (z-score),[37],-0.267
same,glycan array binding signal (z-score),[38],0.122
same,glycan array binding signal (z-score),[39],-0.481
same,glycan array binding signal (z-score),[40],0.359
same,glycan array binding signal (z-score),[41],-0.565
same,glycan array binding signal (z-score),[42],-0.615
same,glycan array binding signal (z-score),[43],-0.222
same,glycan array binding signal (z-score),[44],-0.602
same,glycan array binding signal (z-score),[45],-0.347

# Some of the entries above, reformatted:
binder	measurement	setting	value
B1	glycan array binding signal (z-score)	[26]	-0.932
same	glycan array binding signal (z-score)	[32]	0.838
same	glycan array binding signal (z-score)	[45]	-0.347
